For one molecule, binding results are on record in PMC6001375, “CLERK is a novel receptor kinase required for sensing of root-active CLE peptides in Arabidopsis” (Development (Cambridge, England), 2018).

Results are given in words; binding and its absence hold for the method and conditions named.

This test deals with T1, CLE-… RECEPTOR KINASE (CLERK) ectodomain (Arabidopsis thaliana) (UniProt Q0WVM4).
T1 sequence: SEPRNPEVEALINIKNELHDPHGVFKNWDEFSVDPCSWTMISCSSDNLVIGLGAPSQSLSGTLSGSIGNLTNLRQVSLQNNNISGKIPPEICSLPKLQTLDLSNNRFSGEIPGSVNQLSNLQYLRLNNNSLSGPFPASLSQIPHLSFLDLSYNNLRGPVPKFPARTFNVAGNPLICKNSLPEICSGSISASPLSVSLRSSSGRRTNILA
Description: condition: 400 µM CLE26 titrated into 30 µM CLERK-ECD; ITC; Nano ITC, 25°C, 20 mM citrate (pH 5.0), 150 mM NaCl; peptide in the syringe, ectodomain in the cell: 400 µM CLE26 or CLE45 into 30 µM CLERK-ECD; 80 µM CLE9 into 13.8 µM BAM1-ECD; both purified.

In the case of RKVPRGPDPIHN [CLE26 peptide], the binding entry is given as “no binding”.
